The test addresses GST-Dll^HD (Distal-less homeodomain, GST fusion) (D. melanogaster) (UniProt P20009). Nature of the test: pull-down; purified GST-HD fusion as bait, ^35S-labelled in vitro translated homeodomain (rabbit reticulocyte TNT) as prey; done in duplicate, as described in ref. 38; only the target purified.

Protein sequences, listed by entry. Tags and fused reporters are not part of them. Residues count along the entry.
UniProt P20009, residues 120-188: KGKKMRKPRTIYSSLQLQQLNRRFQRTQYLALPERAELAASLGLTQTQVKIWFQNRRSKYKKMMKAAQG
UniProt Q06453, residues 86-156: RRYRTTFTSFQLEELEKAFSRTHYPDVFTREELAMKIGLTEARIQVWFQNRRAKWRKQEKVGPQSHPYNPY

These are yes or no findings as the source states them, for the method shown. Binding seen in cells or lysates may run through a third protein.

With “in vitro translated Al homeodomain (amino acids 86-156) (from UniProt Q06453 86-156) (domain or fragment)”, the binding entry was “no binding”.

These data come from publication PMC5402979, “Tissue-specific enhancer repression through molecular integration of cell signaling inputs”.
